Experimental findings from publication PMC7652866 are described below.

Results are given in words; binding and its absence hold for the method and conditions named. Binding seen in cells or lysates may run through a third protein. Some entries that bind do so weakly or less than the wild type.

The target in this assay is T1, nucleoporin NUP88 (human (endogenous in MRC5)) (UniProt Q99567).
T1 sequence: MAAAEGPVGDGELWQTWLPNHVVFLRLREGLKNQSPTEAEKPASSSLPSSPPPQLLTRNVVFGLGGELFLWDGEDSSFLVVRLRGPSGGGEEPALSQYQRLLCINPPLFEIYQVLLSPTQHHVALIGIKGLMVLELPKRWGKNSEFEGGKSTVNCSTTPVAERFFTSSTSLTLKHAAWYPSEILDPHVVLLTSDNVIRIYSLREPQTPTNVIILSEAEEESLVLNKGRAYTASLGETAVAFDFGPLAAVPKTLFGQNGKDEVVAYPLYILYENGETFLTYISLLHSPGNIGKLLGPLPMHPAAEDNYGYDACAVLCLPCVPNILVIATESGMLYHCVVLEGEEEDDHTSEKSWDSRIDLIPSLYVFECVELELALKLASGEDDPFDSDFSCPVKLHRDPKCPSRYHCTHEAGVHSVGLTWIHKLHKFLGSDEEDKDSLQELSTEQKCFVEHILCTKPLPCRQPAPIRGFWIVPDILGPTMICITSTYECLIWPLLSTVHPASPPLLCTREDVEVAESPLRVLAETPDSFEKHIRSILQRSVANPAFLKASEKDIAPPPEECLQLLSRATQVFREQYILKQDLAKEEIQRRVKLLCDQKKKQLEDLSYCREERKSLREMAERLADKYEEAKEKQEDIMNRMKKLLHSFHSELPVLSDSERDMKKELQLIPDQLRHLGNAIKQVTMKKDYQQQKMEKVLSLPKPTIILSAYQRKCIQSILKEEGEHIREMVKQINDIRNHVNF
The assay can be described thus: proximity ligation; Duolink PLA Fluorescent Detection (red), anti-mouse PLUS and anti-rabbit MINUS probes, on fixed MRC5, FADS 1 and FADS 2 fibroblasts; rabbit anti-rapsyn, rabbit or mouse anti-γ-tubulin, mouse anti-NUP88; foci mean a distance of at most 40 nm; foci per cell counted.

B1: rapsyn (receptor-associated protein of the synapse) (protein, UniProt Q13702-1 1-412)
chain: MGQDQTKQQIEKGLQLYQSNQTEKALQVWTKVLEKSSDLMGRFRVLGCLVTAHSEMGRYKEMLKFAVVQIDTARELEDADFLLESYLNLARSNEKLCEFHKTISYCKTCLGLPGTRAGAQLGGQVSLSMGNAFLGLSVFQKALESFEKALRYAHNNDDAMLECRVCCSLGSFYAQVKDYEKALFFPCKAAELVNNYGKGWSLKYRAMSQYHMAVAYRLLGRLGSAMECCEESMKIALQHGDRPLQALCLLCFADIHRSRGDLETAFPRYDSAMSIMTEIGNRLGQVQALLGVAKCWVARKALDKALDAIERAQDLAEEVGNKLSQLKLHCLSESIYRSKGLQRELRAHVVRFHECVEETELYCGLCGESIGEKNSRLQALPCSHIFHLRCLQNNGTRSCPNCRRSSMKPGFV
In the case of B1, the binding result is on record as “binds”.

B2: rapsyn E162K mutant protein (protein, UniProt Q13702-1 1-412)
chain: MGQDQTKQQIEKGLQLYQSNQTEKALQVWTKVLEKSSDLMGRFRVLGCLVTAHSEMGRYKEMLKFAVVQIDTARELEDADFLLESYLNLARSNEKLCEFHKTISYCKTCLGLPGTRAGAQLGGQVSLSMGNAFLGLSVFQKALESFEKALRYAHNNDDAMLKCRVCCSLGSFYAQVKDYEKALFFPCKAAELVNNYGKGWSLKYRAMSQYHMAVAYRLLGRLGSAMECCEESMKIALQHGDRPLQALCLLCFADIHRSRGDLETAFPRYDSAMSIMTEIGNRLGQVQALLGVAKCWVARKALDKALDAIERAQDLAEEVGNKLSQLKLHCLSESIYRSKGLQRELRAHVVRFHECVEETELYCGLCGESIGEKNSRLQALPCSHIFHLRCLQNNGTRSCPNCRRSSMKPGFV
In the case of B2, the binding entry is “binds”.
